Reference: patent US20040091453

By UniProt entry, the sequences of proteins in these tests, tags left out. Residues count along the entry.
UniProt A0A8I6A0B6, entry or part of it: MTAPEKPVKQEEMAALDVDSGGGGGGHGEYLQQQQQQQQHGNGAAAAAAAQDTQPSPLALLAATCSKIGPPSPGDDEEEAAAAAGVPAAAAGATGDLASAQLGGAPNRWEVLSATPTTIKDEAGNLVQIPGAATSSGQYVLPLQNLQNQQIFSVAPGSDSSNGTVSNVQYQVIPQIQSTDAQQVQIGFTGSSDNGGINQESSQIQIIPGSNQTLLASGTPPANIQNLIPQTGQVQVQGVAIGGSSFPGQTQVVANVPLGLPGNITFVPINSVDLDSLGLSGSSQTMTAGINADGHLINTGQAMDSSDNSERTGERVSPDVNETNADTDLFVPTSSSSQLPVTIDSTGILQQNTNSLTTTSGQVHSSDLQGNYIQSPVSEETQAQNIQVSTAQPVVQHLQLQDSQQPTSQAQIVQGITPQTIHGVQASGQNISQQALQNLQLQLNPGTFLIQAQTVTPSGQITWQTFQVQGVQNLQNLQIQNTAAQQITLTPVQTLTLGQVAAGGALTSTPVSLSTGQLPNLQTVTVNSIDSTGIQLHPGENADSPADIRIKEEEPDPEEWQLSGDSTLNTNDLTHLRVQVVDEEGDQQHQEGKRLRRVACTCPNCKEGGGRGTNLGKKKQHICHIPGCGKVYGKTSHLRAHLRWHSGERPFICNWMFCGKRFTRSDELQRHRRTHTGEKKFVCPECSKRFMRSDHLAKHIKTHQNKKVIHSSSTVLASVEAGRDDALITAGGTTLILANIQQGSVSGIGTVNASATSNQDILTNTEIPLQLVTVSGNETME
UniProt P27008, 2-1014: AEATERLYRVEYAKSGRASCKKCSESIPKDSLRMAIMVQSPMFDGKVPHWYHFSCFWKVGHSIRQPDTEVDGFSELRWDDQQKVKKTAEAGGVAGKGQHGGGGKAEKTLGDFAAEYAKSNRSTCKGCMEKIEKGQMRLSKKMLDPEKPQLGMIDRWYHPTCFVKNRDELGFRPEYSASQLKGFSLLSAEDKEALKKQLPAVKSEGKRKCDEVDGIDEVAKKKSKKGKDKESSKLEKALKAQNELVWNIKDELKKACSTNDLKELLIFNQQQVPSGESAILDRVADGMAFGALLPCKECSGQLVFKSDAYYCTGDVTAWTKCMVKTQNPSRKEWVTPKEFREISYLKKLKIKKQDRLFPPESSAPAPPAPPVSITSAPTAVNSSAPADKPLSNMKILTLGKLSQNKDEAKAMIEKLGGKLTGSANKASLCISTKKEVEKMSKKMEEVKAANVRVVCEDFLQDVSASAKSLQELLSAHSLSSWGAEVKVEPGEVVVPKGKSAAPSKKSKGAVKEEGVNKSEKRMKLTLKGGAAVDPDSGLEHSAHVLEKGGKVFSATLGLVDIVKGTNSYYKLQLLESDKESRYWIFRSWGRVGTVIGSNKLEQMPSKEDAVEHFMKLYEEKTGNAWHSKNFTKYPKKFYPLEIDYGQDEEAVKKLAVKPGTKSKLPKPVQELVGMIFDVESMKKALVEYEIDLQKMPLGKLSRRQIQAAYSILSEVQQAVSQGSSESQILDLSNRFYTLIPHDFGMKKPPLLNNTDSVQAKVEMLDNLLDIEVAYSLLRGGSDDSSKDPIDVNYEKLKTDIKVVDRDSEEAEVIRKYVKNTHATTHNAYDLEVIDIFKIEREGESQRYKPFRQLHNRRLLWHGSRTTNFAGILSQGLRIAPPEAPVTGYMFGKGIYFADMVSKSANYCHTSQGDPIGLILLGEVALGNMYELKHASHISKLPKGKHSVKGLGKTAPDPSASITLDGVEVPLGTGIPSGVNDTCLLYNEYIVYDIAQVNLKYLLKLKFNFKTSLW

Experiments:
[1] = test system: RINm5F nuclear factors (IL-6/dexamethasone-induced GC box-like binding complex containing PARP) (Rattus norvegicus); assay: competition with a labelled probe; settings: 100-fold excess unlabeled, protein in an extract
[2] = test system: RINm5F nuclear factors (IL-6/dexamethasone-induced GC box-like binding complex containing PARP) (Rattus norvegicus); assay: EMSA; settings: lowest band only after IL-6/dexamethasone with or without nicotinamide; attenuated by beta-NAD+; protein in an extract; label: 32P
[3] = molecular target: Sp3, RINm5F nuclear extract (Rattus norvegicus) (UniProt A0A8I6A0B6); assay: EMSA; settings: supershift with anti-Sp3; the inducible active complex was not supershifted; protein in an extract; label: 32P
[4] = molecular target: PARP (113 kDa nuclear protein), RINm5F nuclear extract (Rattus norvegicus) (UniProt P27008); assay: binding assay; settings: Southwestern blot; 113 kDa band matched by anti-PARP antibodies; independent of poly(ADP-ribosyl)ation; protein in an extract; label: 32P

AGGAGAAAGAAGGGCGTAGTATCTA (double strand) [GKLF binding sequence]
binding result ([1]; no competition): no binding

TTCCTTGCCCCGCCCATTTTTC (double strand) [Probe M2]
binding result ([1]; all bands disappeared, variant of Probe 1 (rat Reg -86 to -65)): binds

TTCCTTGCCCCTAACATTTTTC (double strand) [Probe M1]
binding result ([1]; no competition, variant of Probe 1 (rat Reg -86 to -65)): no binding

TTCCTTGCCCCTCCCATTTTTC (double strand) [Probe 1 (rat Reg -86 to -65)]
binding result [2]: binds | binding result [3]: binds | binding result [4]: binds

TCAGCTTTTGGGAATGTATTCCCTGTCA (double strand) [IK-BS4 Ikaros binding sequence]
binding result ([1]; no competition): no binding

ATTCGATCGGGGCGGGGCGAGC (double strand) [Sp1 GC box consensus]
binding result ([1]; all bands disappeared): binds

Results from cells or extracts need not show a direct contact. For some assays here: For at least one entry, the source does not settle the construct or the ends of the probe. For some assays here: A negative result means that nothing was seen under these conditions.
